Test results taken from paper PMC4507767.
These are yes or no findings as the source states them, for the method shown. Binding seen in cells or lysates may run through a third protein. Some binding calls cover weakened binding; strength is not graded here. Sequences can lack the tags named with a protein.

T1: OsHrd3-FLAG (rice) (UniProt Q10NT7)
T1 sequence: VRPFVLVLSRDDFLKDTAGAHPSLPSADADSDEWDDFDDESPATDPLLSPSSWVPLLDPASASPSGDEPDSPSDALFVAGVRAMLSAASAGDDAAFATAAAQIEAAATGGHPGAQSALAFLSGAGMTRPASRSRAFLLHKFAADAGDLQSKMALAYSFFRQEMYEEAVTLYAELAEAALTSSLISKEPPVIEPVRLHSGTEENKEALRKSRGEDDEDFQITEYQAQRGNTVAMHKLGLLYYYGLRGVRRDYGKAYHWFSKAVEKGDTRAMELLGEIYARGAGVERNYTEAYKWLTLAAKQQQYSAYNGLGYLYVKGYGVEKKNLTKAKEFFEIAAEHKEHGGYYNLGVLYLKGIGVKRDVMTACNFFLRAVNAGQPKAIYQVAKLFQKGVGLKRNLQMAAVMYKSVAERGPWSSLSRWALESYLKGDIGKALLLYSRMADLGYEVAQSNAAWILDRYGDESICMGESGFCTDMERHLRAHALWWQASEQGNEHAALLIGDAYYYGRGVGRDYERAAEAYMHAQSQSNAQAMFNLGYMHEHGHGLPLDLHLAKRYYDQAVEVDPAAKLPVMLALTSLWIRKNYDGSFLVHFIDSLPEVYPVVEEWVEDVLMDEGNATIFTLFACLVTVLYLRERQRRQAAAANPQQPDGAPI


Biological target: T1, OsHrd3-FLAG (rice)
Experiment: co-IP; rice protoplasts transfected with OsHrd3-FLAG together with OsHrd1-HA or OsOS-9-HA; extraction buffer with 1% digitonin; immunoprecipitation with anti-FLAG M2 magnetic beads; immunoblot with anti-FLAG-HRP and anti-HA-HRP

Row | binding | Binder
1 | binds | OsOS-9-HA (protein, UniProt Q67WM9 26-298) ADQIFTSSGAPFGRNSREPRYHVEFHPVDAPFNPENGQESVPMTSHVGKHYTCFLPVEETKTMKSIIPQNATNVIIESERRVKPKDPDELLEILKDQCFYRHEGWWSYEFCYYGKIRQVHVEGEKVIQEYVLGEYDADATDAYYENQTSDSADEDDNLIDTSKRYHVHLYTNGTVCDLTDMPRETEVRFVCSEPTVVISSIKEISSCKYVLTVQSPMLCKNPLFQQEKRTLSIHCNELLAEAEATVDDDSLPKEAQIIIPDPDGLHNYAAYAT
2 | binds | OsHrd1-HA (protein, UniProt Q5Z880 1-500) MIRLQTYAAFSLMATATAVYYAFSSREQFYPAMVYLSTSKICFVLLLNTGLVAMCVAWQLVKRLFLGTLREAEVERLNEQAWREVVEILFAVTIFRQDFSVSFLAMVAALLLVKALHWLAQKRVEYIETTPSVPMLSHARIVSFMLFLLVVDCLFLSNSLRSLIHKREASVAIFFSFEYMILATSTVSTFVKYIFYVSDMLMEGQWEKKAVYTFYLELISDLVHLSLYMLFFIAIFLNYGVPLHLIRELYETFRNFRIRIADYVRYRKITSNMNERFPDATADELNASDATCIICREEMTTAKKLLCGHLFHVHCLRSWLERQHTCPTCRAPILPPDNGRTAARPHGVHPGVQPVPGNGTPGSERAAGENISRRQAKLEAAASAASLYGRSFAYPPANNLNRYSTPPQSTSNGPQSGEASTSNQSPKGHATADPSAPTFYARGAVSSVTTTRELESSLQKAYENAIKSQIEMLQIQLQMFQHGATSSATNNENGEHTKSD
